From a melanoma drug combination screen (doi:10.1371/journal.pone.0140310); values rounded.

Every entry is a combination with nilutamide at 5000 nM: CC1(C)NC(=O)N(c2ccc([N+](=O)[O-])c(C(F)(F)F)c2)C1=O

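The test systems are human melanoma cell lines, treated with two drugs together for 72 h and then stained and imaged. The read-out is the fraction of cleaved-PARP-positive nuclei, in % of that fraction in the DMSO control; 200 means twice the control level of this apoptosis marker. Every drug was used at one fixed concentration, the higher of two screened. No replicate spread is given; individual values may be noisy. The marker varies much from line to line, for technical or biological reasons.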 Only some of the drugs and lines screened are listed, without regard to their results. An entry leaves out what has no value listed here.

Partner: Cc1cc([N+](=O)[O-])ccc1NS(=O)(=O)c1cc(Cl)ccc1Cl at 5000 nM
SK-MEL-30: 71.0
SK-MEL-5: 128
UACC-257: 142
MEL-HO: 171
RPMI-7951: 140
IST-MEL1: 208
G-361: 371
A375: 133

Partner: Cn1cnc2c(F)c(Nc3ccc(Br)cc3Cl)c(C(=O)NOCCO)cc21 at 75 nM
SK-MEL-30: 82.5
SK-MEL-5: 63.4
UACC-257: 77.9
MEL-HO: 224
RPMI-7951: 21.4
IST-MEL1: 88.0
G-361: 167

Partner: CO[C@@H]1[C@H](N(C)C(=O)c2ccccc2)C[C@H]2O[C@]1(C)n1c3ccccc3c3c4c(c5c6ccccc6n2c5c31)C(=O)NC4 at 400 nM
SK-MEL-30: 67.9
SK-MEL-5: 113
UACC-257: 120
MEL-HO: 255
RPMI-7951: 364
IST-MEL1: 49.7
G-361: 313

Partner: C/C(O)=C(\C#N)C(=O)Nc1cc(Br)ccc1Br at 10000 nM
SK-MEL-30: 123
SK-MEL-5: 89.4
UACC-257: 21.8
MEL-HO: 90.7
RPMI-7951: 63.8
IST-MEL1: 161
G-361: 86.5
A375: 79.7

Partner: CS(=O)(=O)CCNCc1ccc(-c2ccc3ncnc(Nc4ccc(OCc5cccc(F)c5)c(Cl)c4)c3c2)o1 at 4000 nM
SK-MEL-30: 51.2
SK-MEL-5: 46.8
UACC-257: 39.4
MEL-HO: 114
RPMI-7951: 177
IST-MEL1: 130
G-361: 94.9

Partner: CNC(=O)c1cc(Oc2ccc(NC(=O)Nc3ccc(Cl)c(C(F)(F)F)c3)cc2)ccn1 at 2000 nM
SK-MEL-30: 113
SK-MEL-5: 47.3
UACC-257: 38.4
MEL-HO: 68.6
RPMI-7951: 67.1
IST-MEL1: 75.2
G-361: 102

Partner: C[As](C)SC[C@H](NC(=O)CC[C@H](N)C(=O)O)C(=O)NCC(=O)O at 2000 nM
SK-MEL-30: 47.0
SK-MEL-5: 376
UACC-257: 40.2
MEL-HO: 72.3
RPMI-7951: 30.4
IST-MEL1: 64.2
G-361: 166

Partner: C[C@]12O[C@H](C[C@]1(O)CO)n1c3ccccc3c3c4c(c5c6ccccc6n2c5c31)CNC4=O at 20 nM
SK-MEL-30: 41.8
SK-MEL-5: 244
UACC-257: 40.5
MEL-HO: 76.2
RPMI-7951: 83.8
IST-MEL1: 52.1
G-361: 152

Partner: N#Cc1c(O)c2c(-c3ccc(-c4ccccc4O)cc3)csc2[nH]c1=O at 10000 nM
SK-MEL-30: 72.9
SK-MEL-5: 97.1
UACC-257: 17.6
MEL-HO: 32.0
RPMI-7951: 31.9
IST-MEL1: 65.0
G-361: 84.0
A375: 86.7

Partner: C[C@@H]1CCN(C(=O)CC#N)C[C@@H]1N(C)c1ncnc2[nH]ccc12 at 5000 nM
SK-MEL-30: 120
SK-MEL-5: 79.0
UACC-257: 75.4
MEL-HO: 70.7
RPMI-7951: 76.5
IST-MEL1: 71.6
G-361: 65.4

Partner: O=C(CCCCCCC(=O)Nc1ccccc1)NO at 400 nM
SK-MEL-30: 81.1
SK-MEL-5: 82.5
UACC-257: 106
MEL-HO: 69.1
RPMI-7951: 67.0
IST-MEL1: 47.8
G-361: 203

Partner: NC(=O)c1ccc(N(C(N)=O)c2c(F)cccc2F)nc1-c1ccc(F)cc1F at 2000 nM
SK-MEL-30: 70.7
SK-MEL-5: 100
UACC-257: 35.1
MEL-HO: 69.0
RPMI-7951: 84.7
IST-MEL1: 113
G-361: 135

Partner: COc1cc([C@@H]2c3cc4c(cc3[C@@H](O[C@@H]3O[C@@H]5CO[C@@H](C)O[C@H]5[C@H](O)[C@H]3O)[C@H]3COC(=O)[C@H]23)OCO4)cc(OC)c1O at 100 nM
SK-MEL-30: 111
SK-MEL-5: 61.7
UACC-257: 36.0
MEL-HO: 70.4
RPMI-7951: 44.1
IST-MEL1: 110
G-361: 73.5

Partner: CCc1ccc(CCOc2ccc(CC3SC(=O)NC3=O)cc2)nc1 (stereo not shown) at 10000 nM
SK-MEL-30: 48.0
SK-MEL-5: 257
UACC-257: 24.9
MEL-HO: 159
RPMI-7951: 119
IST-MEL1: 64.0
G-361: 27.4
A375: 39.3

Partner: Cn1c(=O)n(-c2ccc(C(C)(C)C#N)cc2)c2c3cc(-c4cnc5ccccc5c4)ccc3ncc21 at 20 nM
SK-MEL-30: 99.6
SK-MEL-5: 190
UACC-257: 51.0
MEL-HO: 96.1
RPMI-7951: 66.4
IST-MEL1: 148
G-361: 148

Partner: O=c1[nH]nc(Sc2ncc([N+](=O)[O-])s2)n1-c1ccc2c(c1)OCCO2 at 1000 nM
SK-MEL-30: 94.1
SK-MEL-5: 58.5
UACC-257: 146
MEL-HO: 147
RPMI-7951: 129
IST-MEL1: 59.3
G-361: 48.3

Partner: O=C(O)[C@@H]1[O][Sb](=[O])([O][Sb]2(=[O])[O][C@H]([C@H](O)CO)[C@H](O)[C@H](C(=O)O)[O]2)[O][C@H]([C@H](O)CO)[C@@H]1O (stereo partly shown) at 10000 nM
SK-MEL-30: 32.6
SK-MEL-5: 107
UACC-257: 46.6
MEL-HO: 71.3
RPMI-7951: 28.7
IST-MEL1: 108
G-361: 35.4

Partner: O=C(Nc1cc(C(F)(F)F)cc(C(F)(F)F)c1)c1cc(Cl)ccc1O at 80 nM
SK-MEL-30: 113
SK-MEL-5: 54.2
UACC-257: 79.2
MEL-HO: 78.2
RPMI-7951: 202
IST-MEL1: 960
G-361: 122

Partner: Nc1ncn([C@H]2C[C@H](O)[C@@H](CO)O2)c(=O)n1 at 500 nM
SK-MEL-30: 48.5
SK-MEL-5: 339
UACC-257: 33.2
MEL-HO: 233
RPMI-7951: 180
IST-MEL1: 290
G-361: 76.2

Partner: Cc1ccc(Nc2nccc(N(C)c3ccc4c(C)n(C)nc4c3)n2)cc1S(N)(=O)=O at 2000 nM
SK-MEL-30: 75.8
SK-MEL-5: 105
UACC-257: 126
MEL-HO: 143
RPMI-7951: 102
IST-MEL1: 480
G-361: 257

Partner: COc1ccc2c(c1)CCC1C2CCC2(C)C(NCCCCCCN3C(=O)C=CC3=O)CCC12 (stereo not shown) at 2000 nM
SK-MEL-30: 89.4
SK-MEL-5: 104
UACC-257: 66.6
MEL-HO: 123
RPMI-7951: 73.5
IST-MEL1: 58.7
G-361: 81.3
A375: 44.0

Partner: NCC(=O)Nc1ccc(-n2nc(C(F)(F)F)cc2-c2ccc3c(ccc4ccccc43)c2)cc1 at 5000 nM
SK-MEL-30: 658
SK-MEL-5: 183
UACC-257: 44.8
MEL-HO: 154
RPMI-7951: 132
IST-MEL1: 87.6
G-361: 188

Partner: Nc1ccn([C@@H]2O[C@H](CO)[C@@H](O)C2(F)F)c(=O)n1 at 2 nM
SK-MEL-30: 54.6
SK-MEL-5: 136
UACC-257: 187
MEL-HO: 116
RPMI-7951: 127
IST-MEL1: 131
G-361: 283

Partner: COc1ccc(C2=N[C@@H](c3ccc(Cl)cc3)[C@@H](c3ccc(Cl)cc3)N2C(=O)N2CCNC(=O)C2)c(OC(C)C)c1 at 500 nM
SK-MEL-30: 264
SK-MEL-5: 96.6
UACC-257: 95.8
MEL-HO: 150
RPMI-7951: 261
IST-MEL1: 43.5
G-361: 172

Partner: COc1cc2c(Oc3ccc4[nH]c(C)cc4c3F)ncnc2cc1OCCCN1CCCC1 at 2000 nM
SK-MEL-30: 121
SK-MEL-5: 167
UACC-257: 40.4
MEL-HO: 72.1
RPMI-7951: 138
IST-MEL1: 95.9
G-361: 42.0

Partner: CCCCCCCCCCCCCCCCCCOP(=O)([O-])OC1CC[N+](C)(C)CC1 at 2000 nM
SK-MEL-30: 62.4
SK-MEL-5: 47.3
UACC-257: 68.5
MEL-HO: 266
RPMI-7951: 255
IST-MEL1: 70.6
G-361: 106

Partner: Cc1cc(N2CCOCC2)cc2[nH]c(-c3c(NC[C@@H](O)c4cccc(Cl)c4)cc[nH]c3=O)nc12 at 1000 nM
SK-MEL-30: 57.6
SK-MEL-5: 71.9
UACC-257: 33.8
MEL-HO: 65.4
RPMI-7951: 75.8
IST-MEL1: 100
G-361: 163

Partner: Oc1cc(-c2nc(-c3ccccc3)[nH]c2-c2ccncc2)ccc1Cl at 1000 nM
SK-MEL-30: 35.7
SK-MEL-5: 144
UACC-257: 45.4
MEL-HO: 25.3
RPMI-7951: 173
IST-MEL1: 31.4
G-361: 296
A375: 267

Partner: N.N.[Cl][Pt][Cl] at 8000 nM
SK-MEL-30: 134
SK-MEL-5: 288
UACC-257: 160
MEL-HO: 144
RPMI-7951: 80.8
IST-MEL1: 46.0
G-361: 208

Partner: COc1cc(N2CCC(N3CCN(C)CC3)CC2)ccc1Nc1ncc(Cl)c(Nc2ccccc2S(=O)(=O)C(C)C)n1 at 400 nM
SK-MEL-30: 49.4
SK-MEL-5: 121
UACC-257: 73.6
MEL-HO: 145
RPMI-7951: 53.1
IST-MEL1: 119
G-361: 79.0
A375: 23.4

Partner: CN(NC(=O)CC(=O)NN(C)C(=S)c1ccccc1)C(=S)c1ccccc1 at 30 nM
SK-MEL-30: 190
SK-MEL-5: 366
UACC-257: 33.5
MEL-HO: 166
RPMI-7951: 76.8
IST-MEL1: 410
G-361: 692

Partner: Cc1cc(Nc2cc(N3CCN(C)CC3)nc(Sc3ccc(NC(=O)C4CC4)cc3)n2)n[nH]1 at 30 nM
SK-MEL-30: 64.1
SK-MEL-5: 113
UACC-257: 68.7
MEL-HO: 66.7
RPMI-7951: 131
IST-MEL1: 107
G-361: 73.9

Partner: c1cc(-c2cnn3cc(-c4ccc(OCCN5CCCCC5)cc4)cnc23)ccn1 at 2000 nM
SK-MEL-30: 115
SK-MEL-5: 118
UACC-257: 17.3
MEL-HO: 41.4
RPMI-7951: 157
IST-MEL1: 126
G-361: 113
A375: 94.4

Partner: CCCCCCCCCCCC1=C(O)C(=O)C=C(O)C1=O at 6000 nM
SK-MEL-30: 79.7
SK-MEL-5: 131
UACC-257: 53.4
MEL-HO: 52.9
RPMI-7951: 73.6
IST-MEL1: 157
G-361: 109
A375: 25.6

Partner: CC[C@]1(O)C[C@H]2CN(CCc3c([nH]c4ccccc34)[C@@](C(=O)OC)(c3cc4c(cc3OC)N(C=O)[C@H]3[C@@](O)(C(=O)OC)[C@H](OC(C)=O)[C@]5(CC)C=CCN6CC[C@]43[C@@H]65)C2)C1 at 0.5 nM
SK-MEL-30: 514
SK-MEL-5: 213
UACC-257: 116
MEL-HO: 148
RPMI-7951: 220
IST-MEL1: 87.2
G-361: 75.1